Reference: publication doi:10.1101/2025.01.12.632577
These are yes or no findings as the source states them, for the method shown. A result given as binding can be weak or reduced; the word gives no strength.

Molecular target: GMPCPP-stabilized microtubules (pig brain tubulin), co-sedimentation assay (pig)
Experiment: co-sedimentation

B1: JPT2 (purified from E. coli) (protein, UniProt Q9H910-1 1-190)
chain: MFQVPDSEGGRAGSRAMKPPGGESSNLFGSPEEATPSSRPNRMASNIFGPTEEPQNIPKRTNPPGGKGSGIFDESTPVQTRQHLNPPGGKTSDIFGSPVTATSRLAHPNKPKDHVFLCEGEEPKSDLKAARSIPAGAEPGEKGSARKAGPAKEQEPMPTVDSHEPRLGPRPRSHNKVLNPPGGKSSISFY
- binding: binds
